# In the supplement of paper PMC8728848:
# The other results are listed elsewhere or left out.
# B1: Pbx2CASH domain (Cryptococcus neoformans) (protein)
# chain: GIPGPNRLYRLSGPIIFTAADQEIATYGYPTGSERAVLRVEGRNTATAIQGDCRRCARVSVKNLVVDGNRKKLGRMRDFQLATGLVVLGGNEGQSIQNSWIKNPRGFTAIHIREGDKLQCSGARVEKNEIGPVGEEYDPEKDGDDPEMSPLGRPLADGVSIACRDSFIRDNTFRDNTDAAIVVYCSPGTLIHA
# What was measured:
# Assay in all cases: glycan array binding signal (z-score within array); higher = stronger binding
# Details in all cases: glycan notation: IUPAC condensed, linker removed
# [1] = biological target: GalNAc(b1-4)GlcNAc(b1-2)Man(a1-3)[GalNAc(b1-4)GlcNAc(b1-2)Man(a1-6)]Man(b1-4)GlcNAc(b1-4)GlcNAc
# Procedure, shortened: (§1)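 Glycan array binding is given as a within-array Z-score, which can be read as non-binding when negative. The arrays, 3228 of them, came from the Consortium for Functional Glycomics database and were retained only where the protein sequence was available. Z-scores were averaged across arrays of the same protein sequence at different concentrations or buffers and across linkers.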
# [2] = biological target: GalNAc(b1-4)GlcNAc(b1-3)GalNAc(b1-4)GlcNAc
# Procedure, shortened: as §1
# GalNAc(b1-4)GlcNAc6S = biological target: GalNAc(b1-4)GlcNAc6S
# Procedure, shortened: as §1
# GalNAc(b1-6)GalNAc = biological target: GalNAc(b1-6)GalNAc
# Procedure, shortened: as §1
# GalNAc3S(b1-4)GlcNAc = biological target: GalNAc3S(b1-4)GlcNAc
# Procedure, shortened: as §1
# GalNAc3S(b1-4)GlcNAc3S = biological target: GalNAc3S(b1-4)GlcNAc3S
# Procedure, shortened: as §1
# [3] = biological target: GalNAc3S(b1-4)[Fuc(a1-3)]GlcNAc
# Procedure, shortened: as §1
# GalNAc4S6S(b1-4)GlcNAc = biological target: GalNAc4S6S(b1-4)GlcNAc
# Procedure, shortened: as §1
# GalNAc6S(b1-4)GlcNAc = biological target: GalNAc6S(b1-4)GlcNAc
# Procedure, shortened: as §1
# Glc(a1-4)Glc = biological target: Glc(a1-4)Glc
# Procedure, shortened: as §1
# [4] = biological target: Glc(a1-4)Glc(a1-4)Glc(a1-4)Glc
# Procedure, shortened: as §1
# Glc(a1-6)Glc(a1-6)Glc = biological target: Glc(a1-6)Glc(a1-6)Glc
# Procedure, shortened: as §1
# [5] = biological target: Glc(a1-6)Glc(a1-6)Glc(a1-6)Glc
# Procedure, shortened: as §1
# Glc(b1-4)Glc = biological target: Glc(b1-4)Glc
# Procedure, shortened: as §1
# Glc(b1-6)Glc = biological target: Glc(b1-6)Glc
# Procedure, shortened: as §1
# GlcA(b1-3)Gal = biological target: GlcA(b1-3)Gal
# Procedure, shortened: as §1
# GlcA(b1-3)GlcNAc = biological target: GlcA(b1-3)GlcNAc
# Procedure, shortened: as §1
# GlcA(b1-6)Gal = biological target: GlcA(b1-6)Gal
# Procedure, shortened: as §1
# [6] = biological target: GlcA3S(b1-3)Gal(b1-4)GlcNAc(b1-2)Man
# Procedure, shortened: as §1
# [7] = biological target: GlcA3S(b1-3)Gal(b1-4)GlcNAc(b1-3)Gal(b1-4)Glc
# Procedure, shortened: as §1
# [8] = biological target: GlcNAc(a1-3)Gal(b1-4)GlcNAc
# Procedure, shortened: as §1
# [9] = biological target: GlcNAc(a1-4)Gal(b1-3)GlcNAc
# Procedure, shortened: as §1
# [10] = biological target: GlcNAc(a1-4)Gal(b1-4)GalNAc
# Procedure, shortened: as §1
# [11] = biological target: GlcNAc(a1-4)Gal(b1-4)GlcNAc
# Procedure, shortened: as §1
# [12] = biological target: GlcNAc(a1-4)Gal(b1-4)GlcNAc(b1-3)Gal(b1-4)Glc
# Procedure, shortened: as §1
# [13] = biological target: GlcNAc(a1-4)Gal(b1-4)GlcNAc(b1-3)Gal(b1-4)GlcNAc
# Procedure, shortened: as §1
# [14] = biological target: GlcNAc(a1-4)Gal(b1-4)GlcNAc(b1-3)Gal(b1-4)GlcNAc(b1-3)Gal(b1-4)GlcNAc
# Procedure, shortened: as §1
# [15] = biological target: GlcNAc(a1-4)Gal(b1-4)GlcNAc(b1-3)Gal(b1-4)[Fuc(a1-3)]GlcNAc(b1-3)Gal(b1-4)[Fuc(a1-3)]GlcNAc
# Procedure, shortened: as §1
# [16] = biological target: GlcNAc(a1-6)Gal(b1-4)GlcNAc
# Procedure, shortened: as §1
# [17] = biological target: GlcNAc(b1-2)Gal(b1-3)GalNAc
# Procedure, shortened: as §1
# [18] = biological target: GlcNAc(b1-2)Man(a1-3)[GlcNAc(b1-2)Man(a1-6)]Man(b1-4)GlcNAc(b1-4)GlcNAc
# Procedure, shortened: as §1
# [19] = biological target: GlcNAc(b1-2)Man(a1-3)[GlcNAc(b1-2)Man(a1-6)]Man(b1-4)GlcNAc(b1-4)[Fuc(a1-6)]GlcNAc
# Procedure, shortened: as §1
# [20] = biological target: GlcNAc(b1-2)Man(a1-3)[GlcNAc(b1-4)][GlcNAc(b1-2)Man(a1-6)]Man(b1-4)GlcNAc(b1-4)GlcNAc
# Procedure, shortened: as §1
# [21] = biological target: GlcNAc(b1-2)Man(a1-3)[GlcNAc(b1-4)][GlcNAc(b1-2)Man(a1-6)]Man(b1-4)GlcNAc(b1-4)[Fuc(a1-6)]GlcNAc
# Procedure, shortened: as §1
# [22] = biological target: GlcNAc(b1-2)[GlcNAc(b1-4)]Man(a1-3)[GlcNAc(b1-2)Man(a1-6)]Man(b1-4)GlcNAc(b1-4)GlcNAc
# Procedure, shortened: as §1
# [23] = biological target: GlcNAc(b1-2)[GlcNAc(b1-4)]Man(a1-3)[GlcNAc(b1-4)][GlcNAc(b1-2)Man(a1-6)]Man(b1-4)GlcNAc(b1-4)GlcNAc
# Procedure, shortened: as §1
# [24] = biological target: GlcNAc(b1-2)[GlcNAc(b1-4)]Man(a1-3)[GlcNAc(b1-4)][GlcNAc(b1-2)[GlcNAc(b1-6)]Man(a1-6)]Man(b1-4)GlcNAc(b1-4)GlcNAc
# Procedure, shortened: as §1
# [25] = biological target: GlcNAc(b1-2)[GlcNAc(b1-4)]Man(a1-3)[GlcNAc(b1-4)][GlcNAc(b1-2)[GlcNAc(b1-6)]Man(a1-6)]Man(b1-4)GlcNAc(b1-4)[Fuc(a1-6)]GlcNAc
# Procedure, shortened: as §1
# [26] = biological target: GlcNAc(b1-2)[GlcNAc(b1-6)]Man(a1-6)[GlcNAc(b1-2)Man(a1-3)]Man(b1-4)GlcNAc(b1-4)GlcNAc
# Procedure, shortened: as §1
# [27] = biological target: GlcNAc(b1-2)[GlcNAc(b1-6)]Man(a1-6)[GlcNAc(b1-2)Man(a1-3)]Man(b1-4)GlcNAc(b1-4)[Fuc(a1-6)]GlcNAc
# Procedure, shortened: as §1
# [28] = biological target: GlcNAc(b1-2)[GlcNAc(b1-6)]Man(a1-6)[GlcNAc(b1-4)][GlcNAc(b1-2)Man(a1-3)]Man(b1-4)GlcNAc(b1-4)GlcNAc
# Procedure, shortened: as §1
# GlcNAc(b1-3)Fuc = biological target: GlcNAc(b1-3)Fuc
# Procedure, shortened: as §1
# GlcNAc(b1-3)Gal = biological target: GlcNAc(b1-3)Gal
# Procedure, shortened: as §1
# [29] = biological target: GlcNAc(b1-3)Gal(b1-3)GalNAc
# Procedure, shortened: as §1
# GlcNAc(b1-3)Gal(b1-4)Glc = biological target: GlcNAc(b1-3)Gal(b1-4)Glc
# Procedure, shortened: as §1
binder,measurement,setting,value
B1,glycan array binding signal (z-score),[1],-0.612
same,glycan array binding signal (z-score),[2],-0.433
same,glycan array binding signal (z-score),GalNAc(b1-4)GlcNAc6S,-0.367
same,glycan array binding signal (z-score),GalNAc(b1-6)GalNAc,-0.644
same,glycan array binding signal (z-score),GalNAc3S(b1-4)GlcNAc,-0.633
same,glycan array binding signal (z-score),GalNAc3S(b1-4)GlcNAc3S,-0.15
same,glycan array binding signal (z-score),[3],0.393
same,glycan array binding signal (z-score),GalNAc4S6S(b1-4)GlcNAc,-0.015
same,glycan array binding signal (z-score),GalNAc6S(b1-4)GlcNAc,-0.249
same,glycan array binding signal (z-score),Glc(a1-4)Glc,-0.557
same,glycan array binding signal (z-score),[4],-0.59
same,glycan array binding signal (z-score),Glc(a1-6)Glc(a1-6)Glc,0.077
same,glycan array binding signal (z-score),[5],0.288
same,glycan array binding signal (z-score),Glc(b1-4)Glc,0.477
same,glycan array binding signal (z-score),Glc(b1-6)Glc,0.121
same,glycan array binding signal (z-score),GlcA(b1-3)Gal,2.02
same,glycan array binding signal (z-score),GlcA(b1-3)GlcNAc,-0.233
same,glycan array binding signal (z-score),GlcA(b1-6)Gal,0.168
same,glycan array binding signal (z-score),[6],2.57
same,glycan array binding signal (z-score),[7],0.269
same,glycan array binding signal (z-score),[8],-0.705
same,glycan array binding signal (z-score),[9],-0.075
same,glycan array binding signal (z-score),[10],0.228
same,glycan array binding signal (z-score),[11],-0.496
same,glycan array binding signal (z-score),[12],0.631
same,glycan array binding signal (z-score),[13],0.425
same,glycan array binding signal (z-score),[14],-0.134
same,glycan array binding signal (z-score),[15],0.225
same,glycan array binding signal (z-score),[16],-0.842
same,glycan array binding signal (z-score),[17],-0.58
same,glycan array binding signal (z-score),[18],-0.408
same,glycan array binding signal (z-score),[19],0.191
same,glycan array binding signal (z-score),[20],-0.39
same,glycan array binding signal (z-score),[21],-0.119
same,glycan array binding signal (z-score),[22],-0.293
same,glycan array binding signal (z-score),[23],-0.35
same,glycan array binding signal (z-score),[24],-0.738
same,glycan array binding signal (z-score),[25],-0.348
same,glycan array binding signal (z-score),[26],-0.265
same,glycan array binding signal (z-score),[27],-0.071
same,glycan array binding signal (z-score),[28],0.074
same,glycan array binding signal (z-score),GlcNAc(b1-3)Fuc,-0.946
same,glycan array binding signal (z-score),GlcNAc(b1-3)Gal,-0.697
same,glycan array binding signal (z-score),[29],-0.246
same,glycan array binding signal (z-score),GlcNAc(b1-3)Gal(b1-4)Glc,0.072

# A portion of the results above, for reference:
binder,measurement,setting,value
B1,glycan array binding signal (z-score),GlcNAc(b1-3)Gal,-0.697
same,glycan array binding signal (z-score),[29],-0.246
same,glycan array binding signal (z-score),GlcNAc(b1-3)Gal(b1-4)Glc,0.072
